Some of the results follow. Repeats in this data set agree poorly, so a single value says little.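 The cells were human embryonic kidney cells carrying a Renilla luciferase gene, driven by the HSV-TK promoter, on a plasmid put in briefly by transfection. This is the first-round screen of about ten thousand compounds, looking for ones that raise reporter output.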
Each compound was assayed on HEK 293FT (assay: log relative Renilla luciferase luminescence (reporter expression vs reference, reference not stated) (log (base not stated)); higher = higher recombinant reporter expression). Conditions: 10 µM; time after transfection 48 h.
Protocol: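 HEK 293FT cells transiently transfected with pRL-TK (Renilla luciferase) were treated with compounds at 10 uM and luminescence was read about 42 h later. Values are log relative Renilla luminescence (log base and reference not stated). Single-pass screen; 2080 natural products library.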

In order of falling log:
1. COc1cc([C@H]2OC[C@H]3[C@@H]2CO[C@@H]3c2cc(OC)c(OC(C)=O)c(OC)c2)cc(OC)c1OC(C)=O [Syringaresinol diacetate]  0.814
2. C=C(C)[C@@H]1CC[C@]2(C)CC[C@]3(C)[C@H](CC[C@@H]4[C@@]5(C)CC[C@@H](O)[C@@](C)(CO)[C@@H]5CC[C@]43C)[C@@H]12 [20(29)-Lupene-3,23-diol]  0.232
3. Cc1cc(OC(=O)c2c(C)cc(OC(=O)c3c(C)cc(O)cc3O)cc2O)cc(O)c1C(=O)O [Gyrophoric acid]  0.16
4. COc1c(OC)c2nccc3c4ccccc4n(c1=O)c23 [4,5-Dimethoxycanthin-6-one]  0.134
5. CC(C)C1=C[C@H]2[C@@H]3[C@@H](C(C(C)C)=CC(=O)[C@]3(C)O)[C@@H]1C(=O)[C@]2(C)O [3,10-Dihydroxy-5,11-dielmenthadiene-4,9-dione]  0.116
6. OCC1CCC(O)C1 (centres undefined) [3-(Hydroxymethyl)cyclopentanol]  0.113
7. C=C(C)C(O)CC/C(C)=C/COc1c2occc2cc2ccc(=O)oc12 (centres undefined) [Lansiumarin C]  0.101
8. CC(=O)CC1CCCCN1C (centres undefined) [Methylisopelletierine]  0.0838
9. CC1(C)CC[C@]2(C)CC[C@]3(C)C(=C2C1)CC[C@@H]1[C@@]2(C)CCC(=O)C(C)(C)[C@@H]2CC[C@]13C [13(18)-Oleanen-3-one]  0.0813
10. CC(C)(O)[C@@H]1CC[C@]2(C)CCC[C@](C)(O)[C@H]2C1 [Pterodondiol]  0.08
11. Cc1c(O)c2c(c(C)c1CCO)C(=O)C(C)(C)C2 [Onitin]  0.0762
12. CC[C@H](CC[C@@H](C)[C@H]1CC[C@H]2[C@@H]3[C@H](O)C=C4C[C@@H](O)CC[C@]4(C)[C@H]3CC[C@]12C)C(C)C [Ikshusterol]  0.0647
13. C=C1CC[C@H]2C(C)(C)CCC[C@]2(C)[C@H]1/C=C/c1ccoc1 [Coronarin E]  0.046
14. C=C1CC[C@@H]2[C@](C)(CCC[C@]2(C)C(=O)O)[C@H]1CC[C@H](C)CCO [Imbricatolic acid]  0.0308
15. CC(C)=CCC[C@](C)(O)[C@H]1CC[C@]2(C)[C@@H]1CC[C@@H]1[C@@]3(C)CCC(=O)C(C)(C)[C@@H]3CC[C@]12C [Dipterocarpol]  0.0294
16. O=C1CC[C@H](CO)C1 [3-(hydroxymethyl)cyclopentanone]  0.0251
17. O=C1CC[C@@]2(O)CCO[C@H]2C1 [Cleroindicin C]  0.015
18. COc1c(O)cc(O)c2c(=O)cc(-c3ccccc3)oc12 [Wogonin]  0.012
19. C[C@H](O)C[C@H]1CCCCN1C [(+)-N-Methylallosedridine]  0.0106
20. C=C(C(=O)O)[C@@H]1CC[C@@]2(C)CCCC(=C)[C@@]2(O)C1 [5beta-Hydroxycostic acid]  -0.042
21. C=C(C)[C@@H](O)[C@H](O)c1c(OC)ccc2ccc(=O)oc12 [Minumicrolin]  -0.0547
22. CCCCCCCCCCCCCCCCCCCCCCC(O)C(=O)OCC (centres undefined) [2-Hydroxytetracosanoic acid ethyl ester]  -0.0654
23. COc1ccc(-c2cc(=O)c3c(O)c(OC)c(O)cc3o2)cc1O [Desmethoxycentaureidin]  -0.0669
24. C=C1C(=O)O[C@@H]2/C=C(/C)[C@@]3(O)C=C[C@@](C)(C[C@@H](OC(=O)C(C)C)[C@@H]12)O3 [Tagitinin F]  -0.0748
25. COc1ccc2c(cc3c4c(cc5c(c42)OCO5)CCN3C)c1OC [Dehydrocrebanine]  -0.0825
26. CCCCCCCCC/C=C/CCC[C@@H](O)[C@@H](O)[C@H](CO)NC(=O)[C@H](O)CCCCCCCCCCCCCCCCCCCCCC [Gynuramide II]  -0.0825
27. O=c1cc(-c2ccccc2)oc2cc(O)cc(O)c12 [Chrysin]  -0.102
28. CC1(C)CC[C@]2(C(=O)O)CC[C@]3(C)C(=CC[C@@H]4[C@@]5(C)CC[C@H](O)[C@@](C)(CO)[C@@H]5[C@H](O)C[C@]43C)[C@@H]2C1 [Uncargenin C]  -0.115
29. CC[C@H](/C=C/[C@@H](C)[C@H]1CC[C@H]2[C@@H]3[C@H](O)C=C4C[C@@H](O)CC[C@]4(C)[C@H]3CC[C@]12C)C(C)C [7alpha-Hydroxystigmasterol]  -0.129
30. O=c1cc(-c2ccc(O)cc2)oc2cccc(O)c12 [4',5-Dihydroxyflavone]  -0.131
31. COc1cc(C[C@@H](C)[C@H](C)Cc2ccc(O)c(OC)c2)ccc1O [Dihydroguaiaretic acid]  -0.148
32. CC1(C)[C@H](O)CC[C@@]2(C)[C@@H]3CC[C@](C)([C@@H](O)CO)C=C3CC[C@H]12 [Darutigenol]  -0.155
33. C=CC(C)(C)c1c(OC(C)=O)cc2oc3c(CC=C(C)C)c(OC(C)=O)c(OC(C)=O)cc3c(=O)c2c1O [Cudraxanthone L triacetate]  -0.163
34. C=C1CC[C@H]2O[C@]2(C)CC[C@@H]2[C@@H]1CC2(C)C [Caryophyllene oxide]  -0.167
35. COc1c(OC(C)=O)ccc(OC(C)=O)c1-c1cc(=O)c2c(OC(C)=O)cc(OC(C)=O)c(OC)c2o1 [Viscidulin III tetraacetate]  -0.177
36. O=C1c2c(O)cc(O)cc2O[C@H](c2ccccc2)[C@H]1O [Pinobanksin]  -0.184
37. CC(C)=C1CC2OC2(C)CCC2OC2(C)CC1=O (centres undefined) [1,10:4,5-Diepoxy-7(11)-germacren-8-one]  -0.205
38. C/C(=C\CC[C@@H](C)[C@H]1CC[C@@]2(C)[C@@H]3CCC4C(C)(C)C(O)CC[C@]4(C)C3=CC[C@]12C)C(=O)O (some centres undefined) [3-Hydroxylanost-9(11),24-dien-26-oic acid]  -0.267
39. C=C(C)[C@@H]1CC[C@@](C)([C@H]2CC[C@]3(C)[C@@H]2CC[C@@H]2[C@@](C)(CCC(=O)O)[C@H](C(=C)C)CC[C@]23C)O1 [Richenoic acid]  -0.368

Reference: the supplement of paper PMC7024190
